Reference: patent US20250313625A1
Changes are numbered by the printed parent chain. Names may count otherwise. These are yes or no findings as the source states them, for the method shown. Some entries that bind do so weakly or less than the wild type. Values belong to the binder of their own block, whether it stands above or below them.

Legend:
[1] = molecular target: T1, human LAG3 (form used in Octet, Biacore and HDX-MS not given) (human) (UniProt P18627); assay: SPR (Biacore)
T1 sequence (looked up): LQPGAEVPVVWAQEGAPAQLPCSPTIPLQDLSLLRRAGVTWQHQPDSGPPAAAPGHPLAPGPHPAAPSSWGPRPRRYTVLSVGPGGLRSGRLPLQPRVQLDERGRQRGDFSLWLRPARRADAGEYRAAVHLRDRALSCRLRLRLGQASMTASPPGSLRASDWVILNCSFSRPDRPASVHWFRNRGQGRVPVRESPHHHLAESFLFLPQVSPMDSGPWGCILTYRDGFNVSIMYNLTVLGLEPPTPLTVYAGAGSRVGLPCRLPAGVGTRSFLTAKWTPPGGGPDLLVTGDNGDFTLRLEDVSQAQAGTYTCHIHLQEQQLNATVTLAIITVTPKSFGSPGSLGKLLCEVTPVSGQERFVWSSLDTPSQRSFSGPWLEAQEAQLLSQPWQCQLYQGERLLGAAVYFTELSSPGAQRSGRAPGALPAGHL

[2] = molecular target: T1, human LAG3 (form used in Octet, Biacore and HDX-MS not given) (human); assay: BLI (Octet)

B1: hu023.04 (antibody, human IgG4, V domains shown)
VH: QVQLVQSGAEVKKPGASVKVSCKASGYTFTESPMNWVRQAPGQGFEWMGIIYTDTGEPTYAEEFKGRVTMTRDTSTSTVYMELSSLRSEDTAVYFCASDYGSILYWYFDVWGQGTLVTVSS
VL: DIQMTQSPSSLSASVGDRVTITCKASQDVSTAVAWYQQKPGKAPKLLIYSASYRYTGVPSRFSGSGSGTDFTLTISSLQPEDFATYYCQQHYNAPPTFGQGTKLEIK
binding [1]: binds

B3: hu029.55 (antibody, V domains shown)
VH: QVQLVESGGGLVKPGGSLRLSCAASGFTFSSYAMSWIRQAPGKGLEWVSYVTSGGDYIYYADTVKGRFTISRDDAKNSLYLQMNSLRAEDTAVYYCTRVAYDYEWYFDVWGQGTLVTVSS
VL: B1 VL with L11V, S30T, Y92D, N93S, A94S, P96W
binding [2]: binds

B4: hu029.53 (antibody, V domains shown)
VH: B3 VH with S49A, V93M, T114A
VL: B1 VL with L11V, S30T, Y92D, N93S, A94S, P96W
binding [2]: binds

Now from value to binder:

binding [2]: binds
B2: hu029.55.S93Q (antibody, V domains shown)
VH: B3 VH
VL: B1 VL with L11V, S30T, Y92D, N93Q, A94S, P96W

binding [2]: binds
B5: hu029.40 (antibody, V domains shown)
VH: B3 VH with I37V, G44R, S49A, V93M, T114A
VL: B1 VL with L11V, A13T, S30T, L73F, L78V, Y92D, N93S, A94S, P96W

binding [2]: binds
B6: hu021.269 (antibody, V domains shown)
VH: QVQLQESGPGLVKPSQTLSLTCTVSGYSITSGYYWNWIRQHPGNKLEWIGDISYDGGNNYNPSLKNRVTISRDTSKNQFSLKLSSVTAADTAVYYCARDITLTGAMDYWGQGTTVTVSS
VL: EIVLTQSPATLSLSPGERATLSCRASESVDNYGISFMHWYQQKPGQAPRLLIYRASNRESGIPARFSGSGSRTDFTLTISSLEPEDFAVYYCQQSNKDPYTFGQGTKLEIK

binding [2]: binds
B7: hu021.279 (antibody, V domains shown)
VH: B6 VH with V2I, S15G, N36T, G56A, V68I, A89E, V93T
VL: B6 VL with R58L, R72G
